For this assay, the target named is TaERF-6-3A (wheat (variety JW1)). Put plainly: two-hybrid; point-to-point yeast two-hybrid; pGBKT7-TaERF-6-3A as bait, pGBKAD-AtCIPK22 as prey; grown on SD/-Trp/-Leu and SD/-Trp/-Leu/-His/-Ade/+X-alpha-Gal, read after 2 to 3 days.

The values below come from PMC8950334.

These are yes or no findings as the source states them, for the method shown. Binding can be weak; no strength is given.

B1: calcineurin B-like interacting protein kinase 22 (AtCIPK22) (protein, UniProt O80902 1-431)
chain: MAEDSNSSESIIVNVTGDDNKSALFGKYDLGKLLGSGAFAKVYQAEDLQNGGESVAIKVVQKKRLKDGLTAHVKREISVMRRLRHPHIVLLSEVLATKTKIYFVMELAKGGELFSRVTSNRFTESLSRKYFRQLISAVRYCHARGVFHRDLKPENLLLDENRDLKVSDFGLSAMKEQIHPDGMLHTLCGTPAYVAPELLLKKGYDGSKADIWSCGVVLFLLNAGYLPFRDPNIMGLYRKIHKAQYKLPDWTSSDLRKLLRRLLEPNPELRITVEEILKDPWFNHGVDPSEIIGIQADDYDLEENGKILNAFDLISSASSSNLSGLFGNFVTPDHCDQFVSDESTAVIMRKVEEVAKQLNLRIAKKKERAIKLEGPHGVANVVVKVRRLTNELVMVEMKNKQRDVGLVWADALRQKLRRLINQPVYKVPDKP
On to B1, for which the binding entry is listed as “binds”.
